From PMC9756088 come the findings set out here.

This test deals with T1, FZO-1 N-terminal portion (amino acids 1-617, containing both GTPase and heptad repeat 1 domains) (C. elegans) (UniProt Q23424).
T1 sequence: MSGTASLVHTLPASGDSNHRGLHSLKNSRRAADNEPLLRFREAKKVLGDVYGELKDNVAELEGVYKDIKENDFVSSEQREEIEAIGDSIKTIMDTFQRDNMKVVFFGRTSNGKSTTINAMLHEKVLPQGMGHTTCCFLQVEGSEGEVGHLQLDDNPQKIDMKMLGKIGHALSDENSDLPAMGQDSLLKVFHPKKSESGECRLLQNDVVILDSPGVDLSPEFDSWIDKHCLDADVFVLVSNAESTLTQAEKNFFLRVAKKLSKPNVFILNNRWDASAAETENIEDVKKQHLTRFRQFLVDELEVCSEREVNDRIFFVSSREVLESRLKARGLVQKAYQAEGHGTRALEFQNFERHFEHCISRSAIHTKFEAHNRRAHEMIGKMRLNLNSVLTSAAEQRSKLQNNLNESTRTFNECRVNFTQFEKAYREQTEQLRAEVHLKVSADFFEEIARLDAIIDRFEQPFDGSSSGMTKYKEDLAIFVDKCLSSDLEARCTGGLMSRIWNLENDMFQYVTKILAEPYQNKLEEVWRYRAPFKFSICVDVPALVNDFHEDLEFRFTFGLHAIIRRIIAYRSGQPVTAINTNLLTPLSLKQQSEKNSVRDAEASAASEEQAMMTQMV
Briefly: two-hybrid; large-scale yeast two-hybrid screen by Hybrigenics Services; bait FZO-1 amino acids 1-617 in a GAL4 vector; prey libraries from pooled polyA+ RNA of N2 C. elegans (mixed stage, normal or stressed, and dauer larvae); 264 million potential interactions examined.

Results are given in words; binding and its absence hold for the method and conditions named. Binding calls can cover weak binding; strength is not graded here.

Consider AFD-1 (C. elegans), for which the binding entry was “binds”.
For Y59A8B.10 isoform a (C. elegans) the value was “binds”; for F08F8.9 isoform b (C. elegans), “binds”; for USP-5 (C. elegans), “binds”.
PKN-1 (C. elegans): the binding result is “binds”.
